The other results are listed elsewhere or left out. Shown are side measurements of this screen, not its main read-out; they come without a call. The list favours compounds with an active or inconclusive main result. The note in brackets gives the kind of curve behind each potency; many fits are weak.
Test: qHTS Assay to Find Inhibitors of Chronic Active B-Cell Receptor Signaling
Conditions: ABC-DLBCL IkBa-CBG/CBR reporter, luminescence ratio (green luciferase fused to IkBa over red control in TMD8 lymphoma cells), 4 h
Procedure, shortened: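 Cell line TMD8 (human ABC DLBCL), stably expressing tet-inducible CBG68-IkBa fusion and CBR; IMDM/0.5% FBS; cpd up to 46 uM; dox induction, 4 h, 37C/5% CO2; dual luminescence; green/red ratio; MG132 control.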

[1] = measured here: CBR red luminescence, cell number
[2] = measured here: IkBa-CBG green luminescence

Row | Compound | AC50 [1] | AC50 [2]
1 | CC1=NN(C(=O)c2ccccc2)C(O)(c2ccc(Br)cc2)C1 (centres undefined) | 12.6 µM [falling, partial curve] | 
2 | CCN1C(=O)N(CC)C2NC(=S)NC21 (centres undefined) | 6.51 µM [rising, partial curve, poor fit] | 
3 | N/C(=N\OC(=O)c1ccc(Cl)cc1Cl)c1ccncc1 | 15.8 µM [rising, partial curve, poor fit] | 
4 | COc1ccc(/C=C2\SC(=S)N(CCC(=O)Nc3ccccn3)C2=O)cc1OC | 11.2 µM [falling, partial curve, poor fit] | 
5 | O=C(C1=C[C@H](C2CCCCC2)C[C@H](OCCCCO)O1)N1CCN(Cc2ccc3c(c2)OCO3)CC1 | 6.31 µM [rising, single point] | 
6 | CC(=O)c1ccc(NC(=O)CN2C(=O)/C(=C/C=C/c3ccccc3)SC2=S)cc1 | 4.61 µM [falling, single point] | 
7 | CCOC(=O)c1c(CSc2ccc(C)cc2)n(C)c2cc(Br)c(O)c(CN(C)C)c12 | 35.5 µM [falling, single point] | 
8 | CN(C)/C=C/c1onc(-c2c(F)cccc2Cl)c1C#N | 10 µM [rising, partial curve, poor fit] | 
9 | CC1CN(C(=S)Nc2ccc(Br)cc2)CC(C)O1 (centres undefined) | 10 µM [rising, partial curve, poor fit] | 
10 | O=C(/C(C=Nc1cc2c(oc1=O)CCCC2=O)=C(\O)c1ccccc1)c1ccccc1 | 2.82 µM [rising, full curve] | 
11 | Cc1ccnc(NS(=O)(=O)c2ccc(NC(=O)c3oc4ccc(F)cc4c3C)cc2)n1 | 14.1 µM [falling, single point] | 
12 | CCCCC(=O)NC(c1ccc([N+](=O)[O-])cc1)c1c(O)ccc2ccccc12 (centres undefined) | 25.9 µM [falling, single point] | 20.6 µM [rising, single point]
13 | COc1ccc(NC(=O)CCS(=O)(=O)c2cc(Br)cc3c2N(C(C)=O)CC3)c(OC)c1 | 35.5 µM [falling, single point] | 
14 | O=c1c(-c2ccc(O)cc2)coc2cc(O)cc(O)c12 | 6.31 µM [falling, partial curve, poor fit] | 
15 | Cc1cc[n+](-c2nc([O-])sc2/C=N/Nc2ccc([N+](=O)[O-])cc2)cc1 | 0.731 µM [rising, full curve, poor fit] | 
16 | O=C(Nc1ccc(CN2CCOCC2)cc1)c1ccccc1F | 11.6 µM [falling, partial curve] | 
17 | Cc1ccc(C(=O)CC(=O)c2ccc(C)cc2O)cc1 | 35.5 µM [rising, single point] | 
18 | COc1cc(N/C=C(\C(C)=O)c2ccccc2)cc(OC)c1 | 14.6 µM [rising, partial curve, poor fit] | 
19 | Cc1cc(NS(C)(=O)=O)c(=O)n(Cc2c(F)cccc2Cl)c1 | 25.1 µM [rising, partial curve, poor fit] | 
20 | COc1ccc(C(=O)Nc2cccnc2)cc1OC | 29.1 µM [falling, single point] | 

Row | Compound | AC50 [1] | AC50 [2]
21 | O=C(CCCN1C(=O)/C(=C/c2ccccc2)SC1=S)Nc1ccc(O)cc1 | 2.24 µM [falling, full curve] | 
22 | Cc1ccc(NC(=O)c2ccc(-c3nn(C)c(=O)c4ccccc34)cc2)c(C)c1 | 6.51 µM [rising, single point] | 
23 | Nc1cc2nsnc2cc1Br | 22.4 µM [falling, single point] | 
24 | Brc1ccc(-c2nnc(-c3ccc4c(c3)OCO4)o2)o1 | 0.092 µM [rising, full curve, poor fit] | 
25 | COc1ccc(-c2nc(CN3CCC(C(=O)N4CCOCC4)CC3)c(C)o2)cc1C | 2.51 µM [rising, full curve] | 
26 | CCN(CC)CCNC(=O)c1cn(CC)c2cc(N3CCN(C)CC3)c(F)cc2c1=O | 25.1 µM [falling, single point] | 35.5 µM [rising, partial curve, poor fit]
27 | O=C(Cc1ccc(Br)cc1)Nc1cccc(S(=O)(=O)N2CCOCC2)c1 | 2.91 µM [rising, partial curve, poor fit] | 
28 | COc1ccccc1OCCCn1cc(C#N)c2ccccc21 | 29.1 µM [falling, single point] | 
29 | COc1ccc(-c2cc(=O)[nH]c(NCc3ccccc3)n2)cc1 | 3.26 µM [rising, partial curve, poor fit] | 20.6 µM [falling, partial curve, poor fit]
30 | CCOc1cc(-c2noc(N)c2C#N)cc(OCC)c1OCC | 4.47 µM [falling, partial curve, poor fit] | 
31 | O=C(COc1ccccc1Cl)Nc1ccc(Cl)cn1 | 0.501 µM [rising, full curve, poor fit] | 
32 | COc1ccc(-c2c(-c3cc(OC)c(OC)c(OC)c3)noc2C)cn1 | 14.1 µM [rising, partial curve] | 11.2 µM [falling, partial curve]
33 | Cc1ccc(N2C(=O)N(CC(=O)Nc3c(C)cc(C)cc3Cl)C(=O)C2C)cc1 (centres undefined) | 6.51 µM [rising, partial curve] | 
34 | O=C(c1cc(-c2ccc(Cl)cc2)on1)N1CCN(c2ccccc2)CC1 | 0.224 µM [falling, full curve] | 
35 | C=CCc1c(C)nc(SCCC)[nH]c1=O | 10 µM [rising, partial curve] | 
36 | Cn1c2ccccc2c2c(C(=O)N3CCN(c4ccccn4)CC3)cn(C3CCCC3)c(=O)c21 | 8.2 µM [falling, partial curve] | 
37 | COc1ccc(-c2cc(C(F)(F)F)nc(S(C)(=O)=O)n2)cc1 | 10.3 µM [falling, partial curve] | 7.31 µM [rising, partial curve]
38 | OCCNc1nc(-c2cccnc2)nc2ccccc12 | 12.6 µM [falling, partial curve, poor fit] | 
39 | O=C(O)/C=C/C(=O)c1c(-c2ccccc2)[nH]c2ccccc12 | 35.5 µM [falling, single point] | 

Single records (already shown):
CCN(CC)CCNC(=O)c1cn(CC)c2cc(N3CCN(C)CC3)c(F)cc2c1=O in the list: AC50 [1]: 25.1 µM [falling, single point]; AC50 [2]: 35.5 µM [rising, partial curve, poor fit]
OCCNc1nc(-c2cccnc2)nc2ccccc12 in the list: AC50 [1]: 12.6 µM [falling, partial curve, poor fit]
